Molecules are shown by their SMILES. A value given as a limit tells only on which side of the number the result lay.

Data set [1] is described as follows: Reactivity of PL13 free acid with 10 equivalents of tyrosine, histidine, lysine and N-acetyl cysteine at pH 7.0, RP-HPLC.
Data set [2] is described as follows: Reactivity of PL13 free acid with 2 molar equivalents of N-acetyl cysteine, RP-HPLC. The settings on record: 2 molar equivalents NAC, RT.

With `C=Cc1cc(C)nc(CCC(=O)O)c1` [PL13 free acid], the “conversion of PL13 free acid to PL13-NAC adduct” value in data set [1] (10 molar excess of amino acid, pH 7.0, 4 hours, RT) is 90%. Moreover, the “time until conversion to PL13-NAC adduct is fully complete” value in data set [1] (10 molar excess of amino acid, pH 7.0, RT) was under 18 h. Also, the “selectivity of reaction in the presence of Tyr, His and Lys” value in data set [1] (pH 7.0, 10 equivalents of each amino acid) is “reacted selectively with NAC”. In data set [2] (24 hours), the “reactivity with NAC at pH 7.5 compared with pH 7.0 and 8.0” value is on record as “slower”. Further, in data set [2] (pH 8.0, 72 hours), the “PL13 free acid converted to product (PL13-NAC adduct)” value is listed as about 70%.

(Values after patent US11285220B2, “Materials and methods relating to linkers for use in protein drug conjugates” (Iksuda Therapeutics Limited, priority 2014, dated 2022).)
